Data taken from doi:10.1101/2024.11.15.623168.
Results are given in words; binding and its absence hold for the method and conditions named. Some binding calls cover weakened binding; strength is not graded here.

Molecular target: T1, RecA (E. coli), P0A7G6
T1 chain: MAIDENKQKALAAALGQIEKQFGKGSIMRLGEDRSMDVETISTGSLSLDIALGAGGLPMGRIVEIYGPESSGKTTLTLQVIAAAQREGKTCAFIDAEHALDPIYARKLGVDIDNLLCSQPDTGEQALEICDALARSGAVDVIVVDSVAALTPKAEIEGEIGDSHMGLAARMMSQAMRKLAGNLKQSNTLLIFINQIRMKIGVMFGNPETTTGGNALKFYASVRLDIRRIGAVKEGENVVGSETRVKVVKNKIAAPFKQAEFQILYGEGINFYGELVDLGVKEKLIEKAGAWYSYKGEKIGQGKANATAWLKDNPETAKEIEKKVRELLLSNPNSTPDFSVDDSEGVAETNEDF
Experiment: two-hybrid
Settings: remark: other sources report otherwise

B1: RecN, P05824 1-553 (protein)
chain: MLAQLTISNFAIVRELEIDFHSGMTVITGETGAGKSIAIDALGLCLGGRAEADMVRTGAARADLCARFSLKDTPAALRWLEENQLEDGHECLLRRVISSDGRSRGFINGTAVPLSQLRELGQLLIQIHGQHAHQLLTKPEHQKFLLDGYANETSLLQEMTARYQLWHQSCRDLAHHQQLSQERAARAELLQYQLKELNEFNPQPGEFEQIDEEYKRLANSGQLLTTSQNALALMADGEDANLQSQLYTAKQLVSELIGMDSKLSGVLDMLEEATIQIAEASDELRHYCDRLDLDPNRLFELEQRISKQISLARKHHVSPEALPQYYQSLLEEQQQLDDQADSQETLALAVTKHHQQALEIARALHQQRQQYAEELAQLITDSMHALSMPHGQFTIDVKFDEHHLGADGADRIEFRVTTNPGQPMQPIAKVASGGELSRIALAIQVITARKMETPALIFDEVDVGISGPTAAVVGKLLRQLGESTQVMCVTHLPQVAGCGHQHYFVSKETDGAMTETHMQSLNKKARLQELARLLGGSEVTRNTLANAKELLAA
  binding: binds
